Measurements reported in PubChem BioAssay AID256 (DTP/NCI, 2004).
The list does not hold the whole screen: it gathers some chemical classes. Other doses and runs of a compound may be missing. T/C: endpoint of the treated group in % of that of the vehicle group. Where survival is the endpoint, this PubChem deposit counts one and a half times the control or more as active, and values a quarter to a half above the control carry no call in these data; other NCI protocols may use other cut-offs. Some entries show no survivor count and are marked so; the dose need not have been tolerated. Schedule codes are those of the source, taken here to give the interval after Q, in days (D) or hours (H), and the number of doses after X. Some schedule codes hold Z or #, which are not explained here.

System: CD2F1 mice, L1210 leukemia ip, survival T/C
Assay: NCI In Vivo Anticancer Drug Screen. Data for tumor model L1210 Leukemia (intraperitoneal) in CD2F1 (CDF1) mice
Conditions: T/C endpoint: mean survival time, higher T/C = longer survival
Experimental: The antitumor activity of compounds was measured in mice bearing transplantable tumors. Survival or tumor size were measured and the results are expressed as the measurement made in the treated group (T) divided by the measurement made in the vehicle treated control group (C). The tumor model used in this assay is L1210 Leukemia (intraperitoneal) in CD2F1 (CDF1) mice

Compound: O=S=NN(CCCl)CCCl
- T/C (dose: 0.25 mg/kg/injection, schedule: Q04DX024 (ip), vehicle: saline): 96 % of control [survivor count not shown]
- T/C (dose: 0.25 mg/kg/injection, schedule: Q08DX016 (ip), vehicle: saline): 88 % of control [survivor count not shown]
- T/C (dose: 0.5 mg/kg/injection, schedule: Q01DX008 (ip), vehicle: saline): 94 % of control [survivor count not shown]
- T/C (dose: 0.5 mg/kg/injection, schedule: Q01DX Z (ip), vehicle: carboxymethylcellulose (CMC)): 101 % of control [survivor count not shown]
- T/C (dose: 0.5 mg/kg/injection, schedule: Q04DX024 (ip), vehicle: saline): 100 % of control [survivor count not shown]
- T/C (dose: 0.5 mg/kg/injection, schedule: Q08DX016 (ip), vehicle: saline): 89 % of control [survivor count not shown]
- T/C (dose: 1.0 mg/kg/injection, schedule: Q01DX008 (ip), vehicle: saline): 98 % of control [survivor count not shown]
- T/C (dose: 1.0 mg/kg/injection, schedule: Q01DX Z (ip), vehicle: carboxymethylcellulose (CMC)): 102 % of control [survivor count not shown]
- T/C (dose: 1.0 mg/kg/injection, schedule: Q04DX024 (ip), vehicle: saline): 101 % of control [survivor count not shown]
- T/C (dose: 1.0 mg/kg/injection, schedule: Q08DX016 (ip), vehicle: saline): 91 % of control [survivor count not shown]
- T/C (dose: 2.0 mg/kg/injection, schedule: Q01DX008 (ip), vehicle: saline): 98 % of control [survivor count not shown]
- T/C (dose: 2.0 mg/kg/injection, schedule: Q01DX009 (ip), vehicle: saline): 108 % of control [survivor count not shown]
- T/C (dose: 2.0 mg/kg/injection, schedule: Q01DX009 (sc), vehicle: saline): 93 % of control [survivor count not shown]
- T/C (dose: 2.0 mg/kg/injection, schedule: Q01DX Z (ip), vehicle: carboxymethylcellulose (CMC)): 103 % of control [survivor count not shown]
- T/C (dose: 2.0 mg/kg/injection, schedule: Q04DX003 (ip), vehicle: saline): 96 % of control [survivor count not shown]
- T/C (dose: 2.0 mg/kg/injection, schedule: Q04DX024 (ip), vehicle: saline): 104 % of control [survivor count not shown]
- T/C (dose: 2.0 mg/kg/injection, schedule: Q08DX002 (ip), vehicle: saline): 94 % of control [survivor count not shown]
- T/C (dose: 2.0 mg/kg/injection, schedule: Q08DX016 (ip), vehicle: saline): 92 % of control [survivor count not shown]
- T/C (dose: 4.0 mg/kg/injection, schedule: Q01DX001 (ip), vehicle: saline): 102 % of control [survivor count not shown]
- T/C (dose: 4.0 mg/kg/injection, schedule: Q01DX001 (sc), vehicle: saline): 98 % of control [survivor count not shown]
- T/C (dose: 4.0 mg/kg/injection, schedule: Q01DX008 (ip), vehicle: saline): 113 % of control [survivor count not shown]
- T/C (dose: 4.0 mg/kg/injection, schedule: Q01DX009 (ip), vehicle: saline): 112 % of control [survivor count not shown]
- T/C (dose: 4.0 mg/kg/injection, schedule: Q01DX009 (sc), vehicle: saline): 103 % of control [survivor count not shown]
- T/C (dose: 4.0 mg/kg/injection, schedule: Q01DX Z (ip), vehicle: carboxymethylcellulose (CMC)): 110 % of control [survivor count not shown]
- T/C (dose: 4.0 mg/kg/injection, schedule: Q04DX003 (ip), vehicle: saline): 102 % of control [survivor count not shown]
- T/C (dose: 4.0 mg/kg/injection, schedule: Q04DX024 (ip), vehicle: saline): 114 % of control [survivor count not shown]
- T/C (dose: 4.0 mg/kg/injection, schedule: Q08DX002 (ip), vehicle: saline): 93 % of control [survivor count not shown]
- T/C (dose: 4.0 mg/kg/injection, schedule: Q08DX016 (ip), vehicle: saline): 97 % of control [survivor count not shown]
- T/C (dose: 8.0 mg/kg/injection, schedule: Q01DX001 (ip), vehicle: saline): 104 % of control [survivor count not shown]
- T/C (dose: 8.0 mg/kg/injection, schedule: Q01DX001 (sc), vehicle: saline): 93 % of control [survivor count not shown]
- T/C (dose: 8.0 mg/kg/injection, schedule: Q01DX008 (ip), vehicle: saline): 154 % of control [survivor count not shown]
- T/C (dose: 8.0 mg/kg/injection, schedule: Q01DX009 (ip), vehicle: saline): 125 % of control [survivor count not shown]
- T/C (dose: 8.0 mg/kg/injection, schedule: Q01DX009 (oral), vehicle: saline): 112 % of control [survivor count not shown]
- T/C (dose: 8.0 mg/kg/injection, schedule: Q01DX009 (sc), vehicle: saline): 121 % of control [survivor count not shown]
- T/C (dose: 8.0 mg/kg/injection, schedule: Q04DX003 (ip), vehicle: saline): 106 % of control [survivor count not shown]
- T/C (dose: 8.0 mg/kg/injection, schedule: Q08DX002 (ip), vehicle: saline): 101 % of control [survivor count not shown]
- T/C (dose: 16.0 mg/kg/injection, schedule: Q01DX001 (ip), vehicle: saline): 122 % of control [survivor count not shown]
- T/C (dose: 16.0 mg/kg/injection, schedule: Q01DX001 (oral), vehicle: saline): 117 % of control [survivor count not shown]
- T/C (dose: 16.0 mg/kg/injection, schedule: Q01DX001 (sc), vehicle: saline): 108 % of control [survivor count not shown]
- T/C (dose: 16.0 mg/kg/injection, schedule: Q01DX009 (ip), vehicle: saline): 112 % of control [survivor count not shown]
- T/C (dose: 16.0 mg/kg/injection, schedule: Q01DX009 (oral), vehicle: saline): 106 % of control [survivor count not shown]
- T/C (dose: 16.0 mg/kg/injection, schedule: Q01DX009 (sc), vehicle: saline): 105 % of control [survivor count not shown]
- T/C (dose: 16.0 mg/kg/injection, schedule: Q04DX003 (ip), vehicle: saline): 151 % of control [survivor count not shown]
- T/C (dose: 16.0 mg/kg/injection, schedule: Q08DX002 (ip), vehicle: saline): 132 % of control [survivor count not shown]
- T/C (dose: 32.0 mg/kg/injection, schedule: Q01DX001 (ip), vehicle: saline): 150 % of control [survivor count not shown]
- T/C (dose: 32.0 mg/kg/injection, schedule: Q01DX001 (oral), vehicle: saline): 140 % of control [survivor count not shown]
- T/C (dose: 32.0 mg/kg/injection, schedule: Q01DX001 (sc), vehicle: saline): 135 % of control [survivor count not shown]
- T/C (dose: 32.0 mg/kg/injection, schedule: Q04DX003 (ip), vehicle: saline): 102 % of control [survivor count not shown]
- T/C (dose: 32.0 mg/kg/injection, schedule: Q08DX002 (ip), vehicle: saline): 143 % of control [survivor count not shown]
